# Measured values taken from patent US9517222B2, “Method for the treatment of senile dementia of the Alzheimer's type” (Phenomenome Discoveries Inc., priority 2007, dated 2016).
# What was measured:
# [1] = Serum ethanolamine phospholipid levels in human cohorts (dementia severity, post-mortem pathology, age) by flow-injection MS/MS
# [2] = Serum ethanolamine phospholipid ratios to PtdEt 16:0/18:0 (M01) in human cohorts
# [3] = serum, females, post mortem SDAT
# [4] = serum, females, post mortem control
smiles,measurement,setting,value
"CCCCCCCC/C=C\CCCCCCCC(=O)OC(CO/C=C\CCCCCCCCCCCCCCCC)COP(=O)(O)OCCN (centres unmarked) [Metabolite M20, Plasmenyl 18:0/18:1]",Ratio of serum levels,"[1]; AD, All to CN, Male",0.826
same,Ratio of serum levels,"[1]; ADAS 5-19 to CN, Male",0.892
same,Ratio of serum levels,"[1]; ADAS 20-39 to 5-19, Male",0.880
same,Ratio of serum levels,"[1]; ADAS 20-39 to CN, Male",0.786
same,Ratio of serum levels,"[1]; ADAS 40-70 to 5-19, Male",0.854
same,Ratio of serum levels,"[1]; ADAS 40-70 to 20-39, Male",0.970
same,Ratio of serum levels,"[1]; ADAS 40-70 to CN, Male",0.762
same,"Serum level, Mean","[1]; Cognitive Normal, Female",0.077
same,"Average serum level, Mean","[1]; Cognitive Normal, Male",0.078
same,"Serum level, Mean","[1]; Post Mortem Ctl, Male",0.031
same,"Serum level, Mean",[1]; Post Mortem SDAT Male,0.017
same,Ratio of serum levels,"[1]; Post mortem SDAT vs Control, Male",0.542
same,"Serum level, Mean","[1]; SDAT, ADAS 5-19, Female",0.064
same,"Average serum level, Mean","[1]; SDAT, ADAS 5-19, Male",0.069
same,"Serum level, Mean","[1]; SDAT, ADAS 20-39, Female",0.060
same,"Average serum level, Mean","[1]; SDAT, ADAS 20-39, Male",0.061
same,"Serum level, Mean","[1]; SDAT, ADAS 40-70, Female",0.054
same,"Average serum level, Mean","[1]; SDAT, ADAS 40-70, Male",0.059
same,"Serum level, Mean","[1]; SDAT_all, Female",0.059
same,"Average serum level, Mean","[1]; SDAT_all, Male",0.064
same,"Ratio, ADAS 5-19 to CN, Female","[1]; serum level ratio, females, ADAS 5-19 vs CN",0.828
same,"Ratio, ADAS 20-39 to 5-19, Female","[1]; serum level ratio, females, ADAS 20-39 vs ADAS 5-19",0.945
same,"Ratio, ADAS 20-39 to CN, Female","[1]; serum level ratio, females, ADAS 20-39 vs CN",0.782
same,"Ratio, ADAS 40-70 to 5-19, Female","[1]; serum level ratio, females, ADAS 40-70 vs ADAS 5-19",0.849
same,"Ratio, ADAS 40-70 to 20-39, Female","[1]; serum level ratio, females, ADAS 40-70 vs ADAS 20-39",0.898
same,"Ratio, ADAS 40-70 to CN, Female","[1]; serum level ratio, females, ADAS 40-70 vs CN",0.703
same,"Ratio, 50-59 vs. 40-49, Female","[1]; serum level ratio, females, age 50-59 vs 40-49",0.843
same,"Ratio, 60-69 vs. 40-49, Female","[1]; serum level ratio, females, age 60-69 vs 40-49",0.842
same,"Ratio, 70+ vs. 40-49, Female","[1]; serum level ratio, females, age 70+ vs 40-49",0.905
same,"Ratio, AD, All to CN, Female","[1]; serum level ratio, females, all AD vs cognitively normal",0.768
same,"Ratio, Autopsy AD vs. Control, Female","[1]; serum level ratio, females, autopsy AD vs control",0.410
same,"Ratio, 50-59 vs. 40-49, Male","[1]; serum level ratio, males, age 50-59 vs 40-49",0.971
same,"Ratio, 60-69 vs. 40-49, Male","[1]; serum level ratio, males, age 60-69 vs 40-49",0.976
same,"Ratio, 70+ vs. 40-49, Male","[1]; serum level ratio, males, age 70+ vs 40-49",1.014
same,"Mean serum level, Age Ctl, 30-39, Female","[1]; serum, females, age 30-39",0.074
same,"Mean serum level, Age Ctl, 40-49, Female","[1]; serum, females, age 40-49",0.075
same,"Mean serum level, Age Ctl, 50-59, Female","[1]; serum, females, age 50-59",0.063
same,"Mean serum level, Age Ctl, 60-69, Female","[1]; serum, females, age 60-69",0.063
same,"Mean serum level, Age Ctl, 70+, Female","[1]; serum, females, age 70+",0.068
same,"Mean serum level, Post Mortem SDAT, Female",[1]; [3],0.021
same,"Mean serum level, Post Mortem Ctl, Female",[1]; [4],0.050
same,"Mean serum level, Age Ctl, 30-39, Male","[1]; serum, males, age 30-39",0.086
same,"Mean serum level, Age Ctl, 40-49, Male","[1]; serum, males, age 40-49",0.070
same,"Mean serum level, Age Ctl, 50-59, Male","[1]; serum, males, age 50-59",0.068
same,"Mean serum level, Age Ctl, 60-69, Male","[1]; serum, males, age 60-69",0.069
same,"Mean serum level, Age Ctl, 70+, Male","[1]; serum, males, age 70+",0.071
same,Ratio of ethanolamine phospholipid ratios to M01 between cohorts,"[2]; AD, All to CN, Male",0.793
same,Ratio of ethanolamine phospholipid ratios to M01 between cohorts,"[2]; ADAS 5-19 to CN, Male",0.858
same,Ratio of ethanolamine phospholipid ratios to M01 between cohorts,"[2]; ADAS 20-39 to CN, Male",0.769
same,Ratio of ethanolamine phospholipid ratios to M01 between cohorts,"[2]; ADAS 40-70 to CN, Male",0.736
same,"Average serum ethanolamine phospholipid ratio to M01, Mean","[2]; Cognitive Normal, Male, serum",0.692
same,"Average serum ethanolamine phospholipid ratio to M01, Mean","[2]; SDAT, ADAS 5-19, Male, serum",0.593
same,"Average serum ethanolamine phospholipid ratio to M01, Mean","[2]; SDAT, ADAS 20-39, Male, serum",0.532
same,"Average serum ethanolamine phospholipid ratio to M01, Mean","[2]; SDAT, ADAS 40-70, Male, serum",0.509
same,"Average serum ethanolamine phospholipid ratio to M01, Mean","[2]; SDAT_all, Male, serum",0.548
same,"Ethanolamine Phospholipid Ratio to M01, Mean, Age Ctl, 30-39, Female","[2]; human serum, females aged 30-39",0.708
same,"Ethanolamine Phospholipid Ratio to M01, Mean, Age Ctl, 40-49, Female","[2]; human serum, females aged 40-49",0.682
same,"Ethanolamine Phospholipid Ratio to M01, Mean, Age Ctl, 50-59, Female","[2]; human serum, females aged 50-59",0.637
same,"Ratio of Ethanolamine Phospholipid Ratio to M01, 50-59 vs. 40-49, Female","[2]; human serum, females aged 50-59 vs. females aged 40-49",0.935
same,"Ethanolamine Phospholipid Ratio to M01, Mean, Age Ctl, 60-69, Female","[2]; human serum, females aged 60-69",0.524
same,"Ratio of Ethanolamine Phospholipid Ratio to M01, 60-69 vs. 40-49, Female","[2]; human serum, females aged 60-69 vs. females aged 40-49",0.769
same,"Ethanolamine Phospholipid Ratio to M01, Mean, Age Ctl, 70+_Female","[2]; human serum, females aged 70+",0.565
same,"Ratio of Ethanolamine Phospholipid Ratio to M01, 70+ vs. 40-49, Female","[2]; human serum, females aged 70+ vs. females aged 40-49",0.828
same,"Ratio of Ethanolamine Phospholipid Ratio to M01, 50-59 vs. 40-49, Male","[2]; human serum, males aged 50-59 vs. males aged 40-49",1.004
same,"Ratio of Ethanolamine Phospholipid Ratio to M01, 60-69 vs. 40-49, Male","[2]; human serum, males aged 60-69 vs. males aged 40-49",0.858
same,"Ratio of Ethanolamine Phospholipid Ratio to M01, 70+ vs. 40-49, Male","[2]; human serum, males aged 70+ vs. males aged 40-49",0.898
same,"Ratio of ethanolamine phospholipid ratio to M01, ADAS 5-19 to CN, Female","[2]; serum, females, ADAS 5-19 vs cognitive normal",0.878
same,"Ratio of ethanolamine phospholipid ratio to M01, ADAS 20-39 to 5-19, Female","[2]; serum, females, ADAS 20-39 vs ADAS 5-19",0.941
same,"Ratio of ethanolamine phospholipid ratio to M01, ADAS 20-39 to CN, Female","[2]; serum, females, ADAS 20-39 vs cognitive normal",0.826
same,"Ratio of ethanolamine phospholipid ratio to M01, ADAS 40-70 to 5-19, Female","[2]; serum, females, ADAS 40-70 vs ADAS 5-19",0.808
same,"Ratio of ethanolamine phospholipid ratio to M01, ADAS 40-70 to 20-39, Female","[2]; serum, females, ADAS 40-70 vs ADAS 20-39",0.858
same,"Ratio of ethanolamine phospholipid ratio to M01, ADAS 40-70 to CN, Female","[2]; serum, females, ADAS 40-70 vs cognitive normal",0.709
same,"Ethanolamine phospholipid ratio to M01, Mean, SDAT, ADAS 5-19, Female","[2]; serum, females, SDAT ADAS 5-19",0.587
same,"Ethanolamine phospholipid ratio to M01, Mean, SDAT, ADAS 20-39, Female","[2]; serum, females, SDAT ADAS 20-39",0.553
same,"Ethanolamine phospholipid ratio to M01, Mean, SDAT, ADAS 40-70, Female","[2]; serum, females, SDAT ADAS 40-70",0.474
same,"Ratio of ethanolamine phospholipid ratio to M01, AD, All to CN, Female","[2]; serum, females, all AD vs cognitive normal",0.800
same,"Ethanolamine phospholipid ratio to M01, Mean, SDAT_all Female","[2]; serum, females, all SDAT",0.535
same,"Ratio of ethanolamine phospholipid ratio to M01, Autopsy AD vs. Control, Female","[2]; serum, females, autopsy AD vs post mortem control",0.680
same,"Ethanolamine phospholipid ratio to M01, Mean, Cognitive Normal, Female","[2]; serum, females, cognitive normal",0.669
same,"Ethanolamine phospholipid ratio to M01, Mean, Post Mortem SDAT Female",[2]; [3],0.193
same,"Ethanolamine phospholipid ratio to M01, Mean, Post Mortem Ctl, Female",[2]; [4],0.283
same,"Ratio of ethanolamine phospholipid ratio to M01, ADAS 20-39 to 5-19, Male","[2]; serum, males, SDAT ADAS 20-39 vs ADAS 5-19",0.896
same,"Ratio of ethanolamine phospholipid ratio to M01, ADAS 40-70 to 5-19, Male","[2]; serum, males, SDAT ADAS 40-70 vs ADAS 5-19",0.858
same,"Ratio of ethanolamine phospholipid ratio to M01, ADAS 40-70 to 20-39, Male","[2]; serum, males, SDAT ADAS 40-70 vs ADAS 20-39",0.957
same,"Ethanolamine phospholipid ratio to M01, Mean, Age Ctl, 30-39, Male","[2]; serum, males, age control 30-39",0.691
same,"Ethanolamine phospholipid ratio to M01, Mean, Age Ctl, 40-49, Male","[2]; serum, males, age control 40-49",0.616
same,"Ethanolamine phospholipid ratio to M01, Mean, Age Ctl, 50-59, Male","[2]; serum, males, age control 50-59",0.619
same,"Ethanolamine phospholipid ratio to M01, Mean, Age Ctl, 60-69, Male","[2]; serum, males, age control 60-69",0.529
same,"Ethanolamine phospholipid ratio to M01, Mean, Age Ctl, 70+_Male","[2]; serum, males, age control 70+",0.553
same,"Ethanolamine phospholipid ratio to M01, Mean, Post Mortem SDAT Male","[2]; serum, males, post mortem SDAT",0.187
same,"Ratio of ethanolamine phospholipid ratio to M01, SDAT vs Control (post mortem, males)","[2]; serum, males, post mortem SDAT vs post mortem control",0.737
same,"Ethanolamine phospholipid ratio to M01, Mean, Post Mortem Ctl, Male","[2]; serum, males, post mortem control",0.254

# Some values come without a unit; they compare only within their column.
